From PMC6345024
No constants are given. Whether binding was seen depends on the method and setting. In cells and extracts the contact can be indirect. Some binding calls cover weakened binding; strength is not graded here. Each block holds one molecule with its values, some of them ahead of it.

By UniProt entry, the sequences of proteins in these tests, tags left out.
UniProt P29351: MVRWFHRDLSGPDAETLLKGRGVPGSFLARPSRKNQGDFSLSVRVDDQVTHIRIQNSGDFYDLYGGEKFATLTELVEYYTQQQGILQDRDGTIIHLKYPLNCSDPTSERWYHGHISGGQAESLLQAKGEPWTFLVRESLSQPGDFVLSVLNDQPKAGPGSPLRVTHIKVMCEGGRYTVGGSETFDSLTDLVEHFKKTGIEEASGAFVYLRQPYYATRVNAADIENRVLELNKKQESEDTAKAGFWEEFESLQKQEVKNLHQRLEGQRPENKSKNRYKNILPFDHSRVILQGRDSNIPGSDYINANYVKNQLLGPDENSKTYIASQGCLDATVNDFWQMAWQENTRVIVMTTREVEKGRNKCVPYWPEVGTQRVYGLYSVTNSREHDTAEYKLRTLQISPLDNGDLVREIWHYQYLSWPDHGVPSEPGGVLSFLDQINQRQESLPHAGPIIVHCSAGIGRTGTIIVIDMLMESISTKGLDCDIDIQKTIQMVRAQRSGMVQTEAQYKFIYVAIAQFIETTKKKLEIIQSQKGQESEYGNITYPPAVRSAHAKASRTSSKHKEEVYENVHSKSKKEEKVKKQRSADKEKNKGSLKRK
UniProt P25911: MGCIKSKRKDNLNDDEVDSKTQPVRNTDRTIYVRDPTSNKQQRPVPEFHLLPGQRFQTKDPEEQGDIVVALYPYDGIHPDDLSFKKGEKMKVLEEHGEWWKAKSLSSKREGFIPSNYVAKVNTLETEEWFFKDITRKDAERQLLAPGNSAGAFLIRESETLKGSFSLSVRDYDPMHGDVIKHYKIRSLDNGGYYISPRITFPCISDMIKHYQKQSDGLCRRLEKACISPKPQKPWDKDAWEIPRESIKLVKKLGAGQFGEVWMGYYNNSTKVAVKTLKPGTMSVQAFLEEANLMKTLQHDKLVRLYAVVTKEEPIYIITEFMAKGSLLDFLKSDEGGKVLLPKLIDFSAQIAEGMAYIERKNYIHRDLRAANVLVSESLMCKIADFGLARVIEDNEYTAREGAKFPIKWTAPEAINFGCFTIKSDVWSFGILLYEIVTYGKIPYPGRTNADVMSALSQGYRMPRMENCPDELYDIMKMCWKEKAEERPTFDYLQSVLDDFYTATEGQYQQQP

Experiments:
[1] = target: T1, RP105 (CD180) (mouse (endogenous in bone marrow monocytes)) (UniProt Q62192); experiment: co-IP; IP with anti-RP105 (clone RP/14) and protein A/G plus agarose from lysates of negatively isolated bone marrow monocytes of WT and Ceacam1-/- mice, with or without 500 ng/mL LPS for 15 min; immunoblot
T1 sequence: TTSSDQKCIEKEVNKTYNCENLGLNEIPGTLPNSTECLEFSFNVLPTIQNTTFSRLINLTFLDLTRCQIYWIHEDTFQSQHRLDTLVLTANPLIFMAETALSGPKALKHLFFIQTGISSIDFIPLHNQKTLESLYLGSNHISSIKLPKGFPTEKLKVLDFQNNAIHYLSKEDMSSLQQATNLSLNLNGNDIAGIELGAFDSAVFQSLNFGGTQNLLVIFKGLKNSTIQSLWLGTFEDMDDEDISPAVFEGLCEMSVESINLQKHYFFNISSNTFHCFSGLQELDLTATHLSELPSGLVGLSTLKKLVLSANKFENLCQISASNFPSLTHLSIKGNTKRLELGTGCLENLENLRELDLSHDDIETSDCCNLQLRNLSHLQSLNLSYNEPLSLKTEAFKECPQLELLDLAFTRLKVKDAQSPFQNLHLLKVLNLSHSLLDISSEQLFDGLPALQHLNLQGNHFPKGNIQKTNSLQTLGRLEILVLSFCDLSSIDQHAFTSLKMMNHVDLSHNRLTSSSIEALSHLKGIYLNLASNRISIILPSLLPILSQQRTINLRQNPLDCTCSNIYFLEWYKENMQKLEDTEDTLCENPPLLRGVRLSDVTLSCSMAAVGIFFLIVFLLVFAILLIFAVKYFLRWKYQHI

[2] = target: T2, CEACAM1 (mouse (endogenous in bone marrow monocytes)) (UniProt P31809); experiment: co-IP; IP with anti-CEACAM1 (clone MAb-CC1) and protein A/G plus agarose from lysates of WT bone marrow monocytes, with or without 500 ng/mL LPS for 15 min; immunoblot
T2 sequence (chain, phosphorylated on tyrosine after LPS treatment (4G10 blot); residue not stated): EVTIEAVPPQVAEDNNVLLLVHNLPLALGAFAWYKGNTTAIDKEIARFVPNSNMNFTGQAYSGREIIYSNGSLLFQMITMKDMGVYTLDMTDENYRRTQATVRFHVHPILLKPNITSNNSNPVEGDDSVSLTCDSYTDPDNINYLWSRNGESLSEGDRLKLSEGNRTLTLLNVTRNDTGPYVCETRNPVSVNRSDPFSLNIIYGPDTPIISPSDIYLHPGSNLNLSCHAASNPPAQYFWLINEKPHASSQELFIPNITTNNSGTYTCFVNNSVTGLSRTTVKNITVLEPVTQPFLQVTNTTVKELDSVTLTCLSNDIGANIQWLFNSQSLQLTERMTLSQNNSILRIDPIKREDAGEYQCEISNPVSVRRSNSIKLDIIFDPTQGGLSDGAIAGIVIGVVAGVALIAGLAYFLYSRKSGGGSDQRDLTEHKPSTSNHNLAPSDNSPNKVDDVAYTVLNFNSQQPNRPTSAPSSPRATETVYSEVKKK

[3] = target: T1, RP105 (CD180) (mouse (endogenous in bone marrow monocytes)); experiment: condition: only WT monocytes after 500 ng/mL LPS for 15 min; co-IP; IP with anti-RP105 (clone RP/14) and protein A/G plus agarose from lysates of WT bone marrow monocytes after 500 ng/mL LPS for 15 min; immunoblot
[4] = target: T1, RP105 (CD180) (mouse (endogenous in bone marrow monocytes)); experiment: co-IP; IP with anti-RP105 (clone RP/14) and protein A/G plus agarose from lysates of negatively isolated bone marrow monocytes of WT and Ceacam1-/- mice, with or without 500 ng/mL LPS for 15 min; immunoblot; remark: listed apart in the source

Molecule: phospho-SHP-1 (from UniProt P29351 1-595) (enzyme)
binding [2]: binds

B3: CD14 (receptor, UniProt P10810 16-336)
chain: SPAPPEPCELDEESCSCNFSDPKPDWSSAFNCLGAADVELYGGGRSLEYLLKRVDTEADLGQFTDIIKSLSLKRLTVRAARIPSRILFGALRVLGISGLQELTLENLEVTGTAPPPLLEATGPDLNILNLRNVSWATRDAWLAELQQWLKPGLKVLSIAQAHSLNFSCEQVRVFPALSTLDLSDNPELGERGLISALCPLKFPTLQVLALRNAGMETPSGVCSALAAARVQLQGLDLSHNSLRDAAGAPSCDWPSQLNSLNLSFTGLKQVPKGLPAKLSVLDLSYNRLDRNPSPDELPQVGNLSLKGNPFLDSESHSEKFN
binding [4]: binds

Next, values leading:

binding [1]: no binding
Molecule: Lyn (from UniProt P25911 1-512) (enzyme)

binding [3]: no binding | binding [4]: binds
B1: phospho-VAV1 (protein, UniProt P27870 1-845)
chain: MELWRQCTHWLIQCRVLPPSHRVTWEGAQVCELAQALRDGVLLCQLLNNLLPQAINLREVNLRPQMSQFLCLKNIRTFLSTCCEKFGLKRSELFEAFDLFDVQDFGKVIYTLSALSWTPIAQNKGIMPFPTEDSALNDEDIYSGLSDQIDDTAEEDEDLYDCVENEEAEGDEIYEDLMRLESVPTPPKMTEYDKRCCCLREIQQTEEKYTDTLGSIQQHFMKPLQRFLKPQDMETIFVNIEELFSVHTHFLKELKDALAGPGATTLYQVFIKYKERFLVYGRYCSQVESASKHLDQVATAREDVQMKLEECSQRANNGRFTLRDLLMVPMQRVLKYHLLLQELVKHTQDATEKENLRLALDAMRDLAQCVNEVKRDNETLRQITNFQLSIENLDQSLANYGRPKIDGELKITSVERRSKTDRYAFLLDKALLICKRRGDSYDLKASVNLHSFQVRDDSSGERDNKKWSHMFLLIEDQGAQGYELFFKTRELKKKWMEQFEMAISNIYPENATANGHDFQMFSFEETTSCKACQMLLRGTFYQGYRCYRCRAPAHKECLGRVPPCGRHGQDFAGTMKKDKLHRRAQDKKRNELGLPKMEVFQEYYGIPPPPGAFGPFLRLNPGDIVELTKAEAEHNWWEGRNTATNEVGWFPCNRVHPYVHGPPQDLSVHLWYAGPMERAGAEGILTNRSDGTYLVRQRVKDTAEFAISIKYNVEVKHIKIMTSEGLYRITEKKAFRGLLELVEFYQQNSLKDCFKSLDTTLQFPYKEPERRAISKPPAGSTKYFGTAKARYDFCARDRSELSLKEGDIIKILNKKGQQGWWRGEIYGRIGWFPSNYVEEDYSEYC
modifications: phosphotyrosine at Y160 (detected with phospho-VAV1 Y160 pAb)

binding [4]: binds
B2: MD1 (protein, UniProt O88188 20-162)
chain: DHGSENGWPKHTACNSGGLEVVYQSCDPLQDFGLSIDQCSKQIQSNLNIRFGIILRQDIRKLFLDITLMAKGSSILNYSYPLCEEDQPKFSFCGRRKGEQIYYAGPVNNPGLDVPQGEYQLLLELYNENRATVACANATVTSS
